Results: paper PMC5714384
These are yes or no findings as the source states them, for the method shown. In cells and extracts the contact can be indirect. A result given as binding can be weak or reduced; the word gives no strength.

Assays:
[1] = molecular target: T1, full-length Slit (Drosophila (endogenous in embryos)) (UniProt P24014); assay: co-IP; immunoprecipitation with anti-Slit-C (recognises full-length Slit too) from extracts of ~16 hpf wild-type and ptc mutant embryos (50 mM HEPES pH 7.2, 100 mM NaCl, 1 mM MgCl2, 1 mM CaCl2, 1% NP-40; overnight at 4 C); blot for Robo1 and Slit
T1 sequence: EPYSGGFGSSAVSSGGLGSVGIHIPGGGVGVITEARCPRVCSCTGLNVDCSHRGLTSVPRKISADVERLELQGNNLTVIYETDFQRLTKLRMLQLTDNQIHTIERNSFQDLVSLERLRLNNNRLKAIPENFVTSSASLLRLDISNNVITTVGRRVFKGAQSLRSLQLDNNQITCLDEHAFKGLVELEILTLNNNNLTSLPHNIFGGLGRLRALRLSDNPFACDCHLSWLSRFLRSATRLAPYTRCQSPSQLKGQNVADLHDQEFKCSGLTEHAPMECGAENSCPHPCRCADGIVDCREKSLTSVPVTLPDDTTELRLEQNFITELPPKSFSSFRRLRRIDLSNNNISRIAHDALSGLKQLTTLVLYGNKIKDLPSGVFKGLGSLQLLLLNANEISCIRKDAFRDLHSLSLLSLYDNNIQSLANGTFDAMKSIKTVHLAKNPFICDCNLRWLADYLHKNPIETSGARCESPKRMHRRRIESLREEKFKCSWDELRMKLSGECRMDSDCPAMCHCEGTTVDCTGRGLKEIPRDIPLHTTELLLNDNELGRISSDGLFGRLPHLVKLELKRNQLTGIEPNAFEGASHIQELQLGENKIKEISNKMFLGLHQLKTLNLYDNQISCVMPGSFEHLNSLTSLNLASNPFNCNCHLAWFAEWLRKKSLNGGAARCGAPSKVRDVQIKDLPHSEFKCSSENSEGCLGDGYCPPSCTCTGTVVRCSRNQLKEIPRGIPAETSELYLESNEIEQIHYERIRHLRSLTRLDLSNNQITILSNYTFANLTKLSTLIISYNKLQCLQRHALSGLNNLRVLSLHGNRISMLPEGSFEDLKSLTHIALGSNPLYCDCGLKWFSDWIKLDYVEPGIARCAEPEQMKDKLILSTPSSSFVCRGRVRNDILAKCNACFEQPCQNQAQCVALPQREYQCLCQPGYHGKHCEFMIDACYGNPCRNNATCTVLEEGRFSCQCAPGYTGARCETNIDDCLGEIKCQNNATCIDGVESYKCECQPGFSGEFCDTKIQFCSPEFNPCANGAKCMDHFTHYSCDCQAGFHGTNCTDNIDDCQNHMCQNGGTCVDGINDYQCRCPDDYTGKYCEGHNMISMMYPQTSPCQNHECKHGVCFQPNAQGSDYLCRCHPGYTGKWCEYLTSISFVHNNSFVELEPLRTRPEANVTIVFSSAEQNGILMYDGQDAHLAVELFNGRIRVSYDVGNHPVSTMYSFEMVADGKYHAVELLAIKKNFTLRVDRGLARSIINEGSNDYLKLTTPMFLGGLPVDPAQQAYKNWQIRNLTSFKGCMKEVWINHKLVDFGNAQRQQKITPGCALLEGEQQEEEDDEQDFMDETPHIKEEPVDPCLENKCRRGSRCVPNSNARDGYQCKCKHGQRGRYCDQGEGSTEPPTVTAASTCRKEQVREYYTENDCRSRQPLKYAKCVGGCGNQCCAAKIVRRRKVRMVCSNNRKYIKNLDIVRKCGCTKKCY

[2] = molecular target: Robo1 (Drosophila (endogenous in embryos)); assay: co-IP; immunoprecipitation with anti-Robo1 monoclonal from extract of ~15-16 hpf wild-type embryos (50 mM HEPES pH 7.2, 100 mM NaCl, 1 mM MgCl2, 1 mM CaCl2, 1% NP-40; overnight at 4 C); blot with anti-Slit-C or anti-Slit-N

Q: How did the binding [1] turn out when “Robo1 (Drosophila (endogenous in embryos)) (receptor)” was run?
A: The binding was “binds”.

B1: full-length Slit (ligand, UniProt P24014 37-1504)
chain: EPYSGGFGSSAVSSGGLGSVGIHIPGGGVGVITEARCPRVCSCTGLNVDCSHRGLTSVPRKISADVERLELQGNNLTVIYETDFQRLTKLRMLQLTDNQIHTIERNSFQDLVSLERLRLNNNRLKAIPENFVTSSASLLRLDISNNVITTVGRRVFKGAQSLRSLQLDNNQITCLDEHAFKGLVELEILTLNNNNLTSLPHNIFGGLGRLRALRLSDNPFACDCHLSWLSRFLRSATRLAPYTRCQSPSQLKGQNVADLHDQEFKCSGLTEHAPMECGAENSCPHPCRCADGIVDCREKSLTSVPVTLPDDTTELRLEQNFITELPPKSFSSFRRLRRIDLSNNNISRIAHDALSGLKQLTTLVLYGNKIKDLPSGVFKGLGSLQLLLLNANEISCIRKDAFRDLHSLSLLSLYDNNIQSLANGTFDAMKSIKTVHLAKNPFICDCNLRWLADYLHKNPIETSGARCESPKRMHRRRIESLREEKFKCSWDELRMKLSGECRMDSDCPAMCHCEGTTVDCTGRGLKEIPRDIPLHTTELLLNDNELGRISSDGLFGRLPHLVKLELKRNQLTGIEPNAFEGASHIQELQLGENKIKEISNKMFLGLHQLKTLNLYDNQISCVMPGSFEHLNSLTSLNLASNPFNCNCHLAWFAEWLRKKSLNGGAARCGAPSKVRDVQIKDLPHSEFKCSSENSEGCLGDGYCPPSCTCTGTVVRCSRNQLKEIPRGIPAETSELYLESNEIEQIHYERIRHLRSLTRLDLSNNQITILSNYTFANLTKLSTLIISYNKLQCLQRHALSGLNNLRVLSLHGNRISMLPEGSFEDLKSLTHIALGSNPLYCDCGLKWFSDWIKLDYVEPGIARCAEPEQMKDKLILSTPSSSFVCRGRVRNDILAKCNACFEQPCQNQAQCVALPQREYQCLCQPGYHGKHCEFMIDACYGNPCRNNATCTVLEEGRFSCQCAPGYTGARCETNIDDCLGEIKCQNNATCIDGVESYKCECQPGFSGEFCDTKIQFCSPEFNPCANGAKCMDHFTHYSCDCQAGFHGTNCTDNIDDCQNHMCQNGGTCVDGINDYQCRCPDDYTGKYCEGHNMISMMYPQTSPCQNHECKHGVCFQPNAQGSDYLCRCHPGYTGKWCEYLTSISFVHNNSFVELEPLRTRPEANVTIVFSSAEQNGILMYDGQDAHLAVELFNGRIRVSYDVGNHPVSTMYSFEMVADGKYHAVELLAIKKNFTLRVDRGLARSIINEGSNDYLKLTTPMFLGGLPVDPAQQAYKNWQIRNLTSFKGCMKEVWINHKLVDFGNAQRQQKITPGCALLEGEQQEEEDDEQDFMDETPHIKEEPVDPCLENKCRRGSRCVPNSNARDGYQCKCKHGQRGRYCDQGEGSTEPPTVTAASTCRKEQVREYYTENDCRSRQPLKYAKCVGGCGNQCCAAKIVRRRKVRMVCSNNRKYIKNLDIVRKCGCTKKCY
Q: Which binding [2] does the source give for B1 here?
A: Its binding is “binds”.
